# Results from one PubChem assay

From PubChem BioAssay record AID1224904 (Broad Institute, 2016).

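Selective DUX4 reporter inhibition in doxycycline-induced 293T-iDUX4 cells, scored as Gaussia percent activity minus Italica percent activity, after a 24-hour treatment. The test concentration is not given here. Percent difference between the Gaussia and Italica channels; more negative values mean more selective suppression of the DUX4 reporter, and higher values mean less activity.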

Values are in %. How 0% and 100% were set is not given here. Common to all entries: measured here: selective DUX4 reporter inhibition. This is a side read-out of the assay, for part of the compounds, not drawn at random.

structure: COc1ccc2c3c([nH]c2c1)[C@H](CO)N(C(=O)Nc1ccc(F)cc1)CC31CN(Cc2cc(-c3ccccc3)on2)C1
Gaussia minus Italica difference (%): -0.1904

structure: COc1cccc(S(=O)(=O)Nc2ccc3c(c2)[C@H]2C[C@@H](CC(=O)NCc4ccc(Cl)cc4)O[C@H](CO)[C@H]2O3)c1
Gaussia minus Italica difference (%): -2.623

structure: CO[C@H]1CN(C)C(=O)c2ccc(NC(=O)Nc3cccc(Cl)c3)cc2OC[C@H](C)NC[C@H]1C
Gaussia minus Italica difference (%): 10.33

structure: O=C(C1CCC1)N1[C@@H](CO)[C@@H](c2ccccc2)C12CN(Cc1ccccc1)C2
Gaussia minus Italica difference (%): -7.344

structure: O=C(Nc1ccc(C(F)(F)F)cc1)N[C@@H]1C=C[C@@H](CC(=O)N2CCCCC2)O[C@H]1CO
Gaussia minus Italica difference (%): -10.19

structure: CCCC#Cc1ccc([C@H]2[C@@H](CO)N3C(=O)CN(S(=O)(=O)Cc4ccccc4)C[C@H]23)cc1
Gaussia minus Italica difference (%): 26.08

structure: COc1ccc(C#Cc2ccc([C@@H]3[C@@H](CO)N4C(=O)CN(C(=O)c5ccc(F)cc5)C[C@@H]34)cc2)cc1
Gaussia minus Italica difference (%): -0.4925

structure: O=C(C[C@@H]1CC[C@H]2[C@@H](COC[C@H](O)CN2Cc2ccc(Oc3ccccc3)cc2)O1)N1CCN(c2ccccc2)CC1
Gaussia minus Italica difference (%): -13.33

structure: COc1ccc2c3c([nH]c2c1)[C@H](CO)N(Cc1cccc(Cl)c1)CC31CN(C(C)=O)C1
Gaussia minus Italica difference (%): -1.988

structure: O=C(Nc1ccc2c(c1)[C@@H]1C[C@H](CC(=O)N3CCc4ccccc4C3)O[C@H](CO)[C@@H]1O2)Nc1ccccc1F
Gaussia minus Italica difference (%): -4.939

structure: CC(C)NC(=O)N1CCCCN2[C@@H](CO)[C@H](c3ccc(C#Cc4ccccc4)cc3)[C@@H]2C1
Gaussia minus Italica difference (%): 2.07

structure: CC(C)(C)[S@](=O)N1Cc2cc(C(=O)N3CCc4ccccc4C3)nc(-c3cccc(-c4cncnc4)c3)c2[C@@H]1CCO
Gaussia minus Italica difference (%): -10.43

structure: CC(C)OC(=O)N(C)C[C@@H]1OCc2ccccc2-c2c(n(C)c3ccccc23)C(=O)N([C@@H](C)CO)C[C@@H]1C
Gaussia minus Italica difference (%): 6.631

structure: C[C@@H]1CN([C@@H](C)CO)C(=O)CCCn2nncc2CO[C@@H]1CN(C)Cc1ccc(C(=O)Nc2ccccc2N)cc1
Gaussia minus Italica difference (%): -20.77

structure: O=C(Nc1ccccc1F)N1CCCCN2[C@H](CO)[C@@H](c3ccc(/C=C/c4ccccc4)cc3)[C@H]2C1
Gaussia minus Italica difference (%): -2.299

structure: N#Cc1cccc(-c2ccc(C3[C@@H]4CN(C(=O)Nc5ccc(C(F)(F)F)cc5)C[C@H]3N4)cc2)c1 (stereo partly shown)
Gaussia minus Italica difference (%): -12.06

structure: O=C(Nc1ccc(F)cc1)N1CC(=O)N2[C@H](C1)[C@H](c1ccc(C#Cc3cccnc3)cc1)[C@@H]2CO
Gaussia minus Italica difference (%): -19.73

structure: COc1ccc(C#Cc2ccc([C@H]3[C@H]4CN(C(=O)c5ccc(F)cc5)CC(=O)N4[C@H]3CO)cc2)cc1
Gaussia minus Italica difference (%): -1.591

structure: Cc1ccc(-c2ccccc2[C@H]2[C@@H](C#N)N(C(=O)c3cccc(F)c3)[C@H]2CO)cc1
Gaussia minus Italica difference (%): 0.3829

structure: COc1ccc2c3c(n(C)c2c1)[C@@H](CO)N(C(=O)NC(C)C)CC31CN(CC2CCCC2)C1
Gaussia minus Italica difference (%): -12.42

structure: CS(=O)(=O)Nc1ccc2c(c1)[C@@H]1C[C@@H](CC(=O)NCc3ccc(Oc4ccccc4)cc3)O[C@@H](CO)[C@@H]1O2
Gaussia minus Italica difference (%): 22.68

structure: COc1ccccc1CNC(=O)C[C@@H]1C[C@H]2c3cc(NC(=O)Nc4ccc(C(F)(F)F)cc4)ccc3O[C@H]2[C@@H](CO)O1
Gaussia minus Italica difference (%): -1.533

structure: O=C(C1CCCC1)N1[C@@H](CO)[C@@H](c2ccccc2)C12CN(Cc1ccc(F)cc1)C2
Gaussia minus Italica difference (%): -19.73

structure: COc1ccc2c3c([nH]c2c1)[C@H](CO)N(C(=O)NC(C)C)CC31CN(Cc2ccccc2)C1
Gaussia minus Italica difference (%): -8.442

structure: OC[C@H]1[C@@H](c2ccc(-c3ccccc3F)cc2)[C@H]2CN(Cc3ccncc3)CCCCN21
Gaussia minus Italica difference (%): -8.89

structure: CO[C@@H]1CN(C)C(=O)c2ccc(NC(=O)c3cc(C)on3)cc2OC[C@@H](C)N(S(=O)(=O)c2cccc(F)c2)C[C@H]1C
Gaussia minus Italica difference (%): -12.82

structure: C[C@H]1CN([C@@H](C)CO)C(=O)c2c(c3ccccc3n2C)-c2ccccc2CO[C@@H]1CN(C)C(=O)[C@H]1CCCN1C
Gaussia minus Italica difference (%): -13.99

structure: C[C@H](NC(=O)N(C)C[C@@H]1OCc2ccccc2-c2c(n(C)c3ccccc23)C(=O)N([C@@H](C)CO)C[C@@H]1C)c1ccccc1
Gaussia minus Italica difference (%): 8.134

Some entries from above, unchanged:

- CC(C)NC(=O)N1CCCCN2[C@@H](CO)[C@H](c3ccc(C#Cc4ccccc4)cc3)[C@@H]2C1 : Gaussia minus Italica difference 2.07%
- C[C@H]1CN([C@@H](C)CO)C(=O)c2c(c3ccccc3n2C)-c2ccccc2CO[C@@H]1CN(C)C(=O)[C@H]1CCCN1C : Gaussia minus Italica difference -13.99%
- COc1ccc2c3c([nH]c2c1)[C@H](CO)N(C(=O)NC(C)C)CC31CN(Cc2ccccc2)C1 : Gaussia minus Italica difference -8.442%